# These are yes or no findings as the source states them, for the method shown.
# By UniProt entry, the sequences of proteins in these tests, tags left out. Residues count along the entry.
# UniProt P02701, residues 25-152: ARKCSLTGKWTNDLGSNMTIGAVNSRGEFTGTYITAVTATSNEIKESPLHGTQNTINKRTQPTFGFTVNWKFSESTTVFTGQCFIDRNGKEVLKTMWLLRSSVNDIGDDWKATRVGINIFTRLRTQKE
# Biological target: avidin from chicken (AVD) (chicken) (UniProt P02701)
# Test: condition: only after 20 min at 80°C in the absence of biotin; SDS-PAGE stability assay; as the stability assay, the sample without biotin after 20 min at 80°C; both purified
substance,measurement,value
avidin from chicken (AVD) (from UniProt P02701 25-152),binding,no binding

# From PMC3954883
